The supplement of paper PMC4604168 (melanoma cell lines)
Some of the results follow. Repeats are few or missing, and single values can be far off.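 The apoptosis fraction was the count of cleaved-PARP antibody-stained nuclei relative to all DNA-stained nuclei, imaged in 1,536-well plates. Screening doses were set so most cells survived, and baseline and induced cleaved-PARP levels vary greatly across cell lines.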

Columns and labels:
Experiment in all cases: cleaved PARP positive nuclei fraction relative to DMSO control; melanoma cells; higher = more apoptosis
Settings in all cases: library dose: low library concentration; 72 h
501Mel = test system: 501Mel
A101D = test system: A101D
A2058 = test system: A2058
A375 = test system: A375
C32 = test system: C32
CBRC008 = test system: CBRC008 (line from a melanoma biopsy)
CBRC013 = test system: CBRC013 (line from a melanoma biopsy)
CBRC014 = test system: CBRC014 (line from a melanoma biopsy)
CBRC016 = test system: CBRC016 (line from a melanoma biopsy)
CBRC017 = test system: CBRC017 (line from a melanoma biopsy)

Structure (SMILES)	cleaved PARP positive nuclei fraction (501Mel) [%]	cleaved PARP positive nuclei fraction (A101D) [%]	cleaved PARP positive nuclei fraction (A2058) [%]	cleaved PARP positive nuclei fraction (A375) [%]	cleaved PARP positive nuclei fraction (C32) [%]	cleaved PARP positive nuclei fraction (CBRC008) [%]	cleaved PARP positive nuclei fraction (CBRC013) [%]	cleaved PARP positive nuclei fraction (CBRC014) [%]	cleaved PARP positive nuclei fraction (CBRC016) [%]	cleaved PARP positive nuclei fraction (CBRC017) [%]
NC1(c2ccc(-c3nc4ccn5c(=O)[nH]nc5c4cc3-c3ccccc3)cc2)CCC1 + C[C@@H]1CCN(C(=O)CC#N)C[C@@H]1N(C)c1ncnc2[nH]ccc12 [CP690550] (first compound 0.4 µM, partner dose 1 µM)	83	47.1	194	151	125	45	97.6	87.3	118	93.2
CC1(C)CCC(c2ccc(Cl)cc2)=C(CN2CCN(c3ccc(C(=O)NS(=O)(=O)c4ccc(N[C@H](CCN5CCOCC5)CSc5ccccc5)c(S(=O)(=O)C(F)(F)F)c4)cc3)CC2)C1 + COc1cc(Nc2ncc(F)c(Nc3ccc4c(n3)NC(=O)C(C)(C)O4)n2)cc(OC)c1OC [Tamatinib] (first compound 0.4 µM, partner dose 0.4 µM)	108	429	311	304	1060	1760	95.5	524	524	367
CCN(CC)CCNC(=O)c1c(C)[nH]c(/C=C2\C(=O)Nc3ccc(F)cc32)c1C [sunitinib] + O=C(CCCCCCC(=O)Nc1ccccc1)NO [vorinostat] (first compound 0.4 µM, partner dose 0.08 µM)	202	182	64.1	127	87.4	50.4	239	83.8	114	98.3
CCN(CC)CCNC(=O)c1c(C)[nH]c(/C=C2\C(=O)Nc3ccc(F)cc32)c1C [sunitinib] + Cc1cc(N2CCOCC2)cc2[nH]c(-c3c(NC[C@@H](O)c4cccc(Cl)c4)cc[nH]c3=O)nc12 [BMS536924] (first compound 0.4 µM, partner dose 0.2 µM)	292	88.9	113	338	116	140	253	83.4	59.8	76.4
CN(c1ncccc1CNc1nc(Nc2ccc3c(c2)CC(=O)N3)ncc1C(F)(F)F)S(C)(=O)=O + C=CCn1c(=O)c2cnc(Nc3ccc(N4CCN(C)CC4)cc3)nc2n1-c1cccc(C(C)(C)O)n1 [MK1775] (first compound 0.08 µM, partner dose 0.02 µM)	226	111	50.7	99.5	599	44	92.3	81.6	21.4	96.2
Cn1cnc2c(F)c(Nc3ccc(Br)cc3Cl)c(C(=O)NOCCO)cc21 [selumetinib] + Cn1cncc1[C@@](N)(c1ccc(Cl)cc1)c1ccc2c(c1)c(-c1cccc(Cl)c1)cc(=O)n2C [tipifarnib] (first compound 0.015 µM, partner dose 0.01 µM)	151	280	193	213	38.6	26.7	115	91	131	144
CCN(CC)CCNC(=O)c1c(C)[nH]c(/C=C2\C(=O)Nc3ccc(F)cc32)c1C [sunitinib] + CO[C@@H]1[C@H](N(C)C(=O)c2ccccc2)C[C@H]2O[C@]1(C)n1c3ccccc3c3c4c(c5c6ccccc6n2c5c31)C(=O)NC4 [Midostaurin] (first compound 0.4 µM, partner dose 0.08 µM)	174	107	88	413	76.1	41.7	326	90.9	125	52
C[C@]1(O)C[C@@H](c2nc(-c3ccc4ccc(-c5ccccc5)nc4c3)c3c(N)nccn32)C1 + O=C(Nc1cccc(Cl)c1)Nc1ncc(CCNc2ncnc3ccsc23)s1 [SNS314] (first compound 0.4 µM, partner dose 0.0008 µM)	341	80.4	38.2	235	101	74.6	144	78.9	81.4	85.4
NC(=O)c1ccc(N(C(N)=O)c2c(F)cccc2F)nc1-c1ccc(F)cc1F + COc1cc(Nc2ncc(F)c(Nc3ccc4c(n3)NC(=O)C(C)(C)O4)n2)cc(OC)c1OC [Tamatinib] (first compound 0.4 µM, partner dose 0.4 µM)	88.4	173	187	144	101	207	131	73.5	52.7	84.1
COc1ccc(C2=N[C@@H](c3ccc(Cl)cc3)[C@@H](c3ccc(Cl)cc3)N2C(=O)N2CCNC(=O)C2)c(OC(C)C)c1 [Nutlin-3] + CC1(C)NC(=O)N(c2ccc([N+](=O)[O-])c(C(F)(F)F)c2)C1=O [nilutamide] (first compound 0.1 µM, partner dose 1 µM)	90.7	102	130	39	123	270	109	82.7	28.9	101
CC1(C)CCC(c2ccc(Cl)cc2)=C(CN2CCN(c3ccc(C(=O)NS(=O)(=O)c4ccc(N[C@H](CCN5CCOCC5)CSc5ccccc5)c(S(=O)(=O)C(F)(F)F)c4)cc3)CC2)C1 + CO[C@@H]1[C@H](N(C)C(=O)c2ccccc2)C[C@H]2O[C@]1(C)n1c3ccccc3c3c4c(c5c6ccccc6n2c5c31)C(=O)NC4 [Midostaurin] (first compound 0.4 µM, partner dose 0.08 µM)	96	304	163	375	494	979	95.8	454	740	334
CC(=O)O[C@@]12CO[C@@H]1C[C@H](O)[C@@]1(C)C(=O)[C@H](O)C3=C(C)[C@@H](OC(=O)[C@H](O)[C@@H](NC(=O)OC(C)(C)C)c4ccccc4)C[C@@](O)([C@@H](OC(=O)c4ccccc4)[C@H]21)C3(C)C [Docetaxel] + CC1(C)NC(=O)N(c2ccc([N+](=O)[O-])c(C(F)(F)F)c2)C1=O [nilutamide] (first compound 0.0001 µM, partner dose 1 µM)	122	194	5040	12300	338	200	95.3	167	201	162
CC1(C)CCC(c2ccc(Cl)cc2)=C(CN2CCN(c3ccc(C(=O)NS(=O)(=O)c4ccc(N[C@H](CCN5CCOCC5)CSc5ccccc5)c(S(=O)(=O)C(F)(F)F)c4)cc3)CC2)C1 + CN(C)S(=O)(=O)c1ccc2c(c1)/C(=C/c1cc3c([nH]1)CCCC3)C(=O)N2 [SU6656] (first compound 0.4 µM, partner dose 0.4 µM)	77.5	231	150	204	1540	339	368	747	490	407
CCCCCCCCc1ccc(CCC(N)(CO)CO)cc1 [fingolimod] + NCC(=O)Nc1ccc(-n2nc(C(F)(F)F)cc2-c2ccc3c(ccc4ccccc43)c2)cc1 [OSU03012] (first compound 2 µM, partner dose 1 µM)	292	60.5	141	10300	137	181	245	164	104	103
COc1ccc(C2=N[C@@H](c3ccc(Cl)cc3)[C@@H](c3ccc(Cl)cc3)N2C(=O)N2CCNC(=O)C2)c(OC(C)C)c1 [Nutlin-3] + NC(=O)Nc1cc(-c2cccc(F)c2)sc1C(=O)N[C@H]1CCCNC1 [AZD7762] (first compound 0.1 µM, partner dose 0.02 µM)	87.5	105	76.6	279	158	213	120	110	73.5	143
CCCCCCCCc1ccc(CCC(N)(CO)CO)cc1 [fingolimod] + Cn1cncc1[C@@](N)(c1ccc(Cl)cc1)c1ccc2c(c1)c(-c1cccc(Cl)c1)cc(=O)n2C [tipifarnib] (first compound 2 µM, partner dose 0.01 µM)	190	52.1	110	157	100	105	96.6	102	110	133
COc1ccc(C2=N[C@@H](c3ccc(Cl)cc3)[C@@H](c3ccc(Cl)cc3)N2C(=O)N2CCNC(=O)C2)c(OC(C)C)c1 [Nutlin-3] + CC(C)(C)c1cnc(CSc2cnc(NC(=O)C3CCNCC3)s2)o1 [SNS-032] (first compound 0.1 µM, partner dose 0.01 µM)	99.5	99.1	48.7	78.7	173	166	139	82.8	128	96.9
COc1ccc(C2=N[C@@H](c3ccc(Cl)cc3)[C@@H](c3ccc(Cl)cc3)N2C(=O)N2CCNC(=O)C2)c(OC(C)C)c1 [Nutlin-3] + O=C(Nc1cccc(Cl)c1)Nc1ncc(CCNc2ncnc3ccsc23)s1 [SNS314] (first compound 0.1 µM, partner dose 0.0008 µM)	84.8	97.8	47.7	107	222	78.1	167	88.5	80.8	117
CS(=O)(=O)c1ccc(C(=O)Nc2ccc(Cl)c(-c3ccccn3)c2)c(Cl)c1 [vismodegib] + Cc1cc(N2CCOCC2)cc2[nH]c(-c3c(NC[C@@H](O)c4cccc(Cl)c4)cc[nH]c3=O)nc12 [BMS536924] (first compound 1 µM, partner dose 0.2 µM)	84.3	74.4	121	202	65.3	556	166	91	158	101
NC(=O)c1ccc(N(C(N)=O)c2c(F)cccc2F)nc1-c1ccc(F)cc1F + OCCn1cc(-c2cnc3nnn(Cc4ccc5ncccc5c4)c3n2)cn1 [PF04217903] (first compound 0.4 µM, partner dose 1 µM)	159	77.6	59.5	85.7	147	143	96.1	80.1	77.7	113
C[C@]1(O)C[C@@H](c2nc(-c3ccc4ccc(-c5ccccc5)nc4c3)c3c(N)nccn32)C1 + O=C(CCCCCCC(=O)Nc1ccccc1)NO [vorinostat] (first compound 0.4 µM, partner dose 0.08 µM)	322	76.6	230	75.9	118	127	132	91.6	109	136

Complete entries as entered above. Order of values: cleaved PARP positive nuclei fraction (501Mel) [%] | cleaved PARP positive nuclei fraction (A101D) [%] | cleaved PARP positive nuclei fraction (A2058) [%] | cleaved PARP positive nuclei fraction (A375) [%] | cleaved PARP positive nuclei fraction (C32) [%] | cleaved PARP positive nuclei fraction (CBRC008) [%] | cleaved PARP positive nuclei fraction (CBRC013) [%] | cleaved PARP positive nuclei fraction (CBRC014) [%] | cleaved PARP positive nuclei fraction (CBRC016) [%] | cleaved PARP positive nuclei fraction (CBRC017) [%]
CCCCCCCCc1ccc(CCC(N)(CO)CO)cc1 [fingolimod] + NCC(=O)Nc1ccc(-n2nc(C(F)(F)F)cc2-c2ccc3c(ccc4ccccc43)c2)cc1 [OSU03012] (first compound 2 µM, partner dose 1 µM) in the list: 292 | 60.5 | 141 | 10300 | 137 | 181 | 245 | 164 | 104 | 103
CCN(CC)CCNC(=O)c1c(C)[nH]c(/C=C2\C(=O)Nc3ccc(F)cc32)c1C [sunitinib] + CO[C@@H]1[C@H](N(C)C(=O)c2ccccc2)C[C@H]2O[C@]1(C)n1c3ccccc3c3c4c(c5c6ccccc6n2c5c31)C(=O)NC4 [Midostaurin] (first compound 0.4 µM, partner dose 0.08 µM) in the list: 174 | 107 | 88 | 413 | 76.1 | 41.7 | 326 | 90.9 | 125 | 52
